These are yes or no findings as the source states them, for the method shown. Binding calls can cover weak binding; strength is not graded here.

The values that follow come from article PMC4549789.

This assay concerns the target Acidiphilium IS1634 transposase, wild type (Acidiphilium sp. PM). Nature of the assay: pull-down; 12 μM Tnp covalently coupled to tosyl-activated magnetic beads (Dynabeads M-280); 5 μM β labeled with Alexa Fluor 350 (or labelled PCNA) in solution; PBS, 0.1% Tween-20, 0.1% BSA, pH 7.2; 15 min, 25 °C; three washes; SDS-PAGE, UV; both purified.

B1: Leptospirillum ferrooxidans β sliding clamp (protein, UniProt I0IKD4 1-385)
chain: MEIIVDQETFLDGVQRIAALTDRKNAALVGSQVLLDAQGETVTLYASDTQTGGRFELPAKVLAPGKTTVPGKTLFNLIRQLPPGDLTITRDASGLTRIERERIQNSLKGINPDEFNVFPEITAEYSFLVPLGAFLDQLKKSLPFASDEEGKPLNGILLTRELGDKGQPILNMVSTDGHRLHHGVILLGEDAGGSVTGQSESRFILKKRNLQELAHVLELDAKDPNMSIEIVLNPKYVTFRWGRFYYFARLLSTPYPNYKEAFPQDFTVGVEISRESLDSALKRVSVVSDKKPEVIFDWNDRFLVLRTMNEEIGESIETIPAFVRGESGSLIFKIDFLRVLLAVTSGETIRFDVRYGKEYGAKDSMPVIWRALDDPHSRYVLMPMG
modifications: labeled with Alexa Fluor 350 C5-maleimide
Consider B1, for which the binding entry is recorded as “binds”.
